# Test results: PubChem BioAssay AID1508635 (National Center for Advancing Translational Sciences (NCATS), 2021)
# Inconclusive means that the source gave no clear call. Such entries were picked first, then a sample of the others. Potencies of inconclusive entries are doubtful fits and often do not repeat. The source made the active and inactive calls. Calls come from the whole dose curve; as a rule, active = well fitted inhibition curve with a large enough effect; inconclusive = small, poorly fitted or top-dose-only effect; inactive = no such curve, though single readings can be large or run the other way. Numbered stars: 1 amine (or outer) side, 2 acyl side, 3 side chain; on linkers, the order of the positions; unused ones are H or OH. Bridge positions count the residues as written; N and C are the ends. Square brackets hold non-standard residues; d marks the D form. Peptide text beside a SMILES is read from it. I, II: the chains in the order shown. * marks the point of attachment. ξ: configuration not given here. Actinocin(9to1) = Cc1c2oc3c(C)ccc(C(=O)[*:1])c3nc-2c(C(=O)[*:2])c(N)c1=O; ξNMeV = CNC(C(=O)O)C(C)C; Cbz = O=C(OCc1ccccc1)*; ξV = CC(C)C(N)C(=O)O; Sar = CNCC(=O)O
# System: zebrafish Abcb4 (ABCB1 homolog)
# Assay: qHTS for characterization and localization of zebrafish homologs of the human ABCB1 multidrug transporter: ABCB4 transfected cells
# Details: CellTiter-Glo viability luminescence, 72 h; series mostly up to 46.1 µM; activity change, negative = inhibition: at the top concentration
# From the text: The zebrafish has emerged as a potential model to study the blood-brain barrier (BBB) given its similarities with mammalian systems. However, little information has been available with regard to homologous ATP-binding cassette transporters expressed at the zebrafish BBB. Two transporters that are highly expressed at the human BBB are P-glycoprotein (P-gp, encoded by the ABCB1 gene) and ABCG2 (encoded by the ABCG2 gene). In this study, we focus on characterization of P-gp homologs in the zebrafish, which has two genes that are homologous to human ABCB1 - abcb4 and abcb5. We generated stably-transfected cell lines to determine their substrate specificities. […] Zebrafish abcb4 also colocalized with claudin 5 expression in brain endothelial cells.
# A high-throughput screen was performed as previously described on empty vector transfected cells, P-gp-overexpressing MDR-19 cells and cells transfected with full-length zebrafish abcb4 (ZF Abcb4) or abcb5 (ZF Abcb5). Briefly, cells were plated into 1536-well plates at a density of 500 cells/well in 5 uL media. P-gp substrate compounds (approximately 90) selected from our previous study were then added at varying concentrations using a 1536-head pin tool (Kalypsis, San Diego, CA) and plates were incubated at 37C in 5% CO2 for 72 h. CellTiter-Glo reagent (Promega) was dispensed into the wells, incubated for 5 min and luminescence was read on a ViewLux instrument (Perkin-Elmer).
# Cytotoxic compounds were defined as those that yielded a curve class of -1.1, -1.2, -2.1, -2.2, -2.3, or -2.4, a maximum response of >50% and an AC50 of < 10 uM. All compounds from screening analysis were tested in Vector (empty vector control), MDR-19 (P-gp overexpressing), zebrafish abcb4 (ZF Abcb4) and abcb5 (ZF Abcb5) expression cell lines.
# 1. Tobie D Lee, Olivia W Lee, Kyle R Brimacombe, Lu Chen, Rajarshi Guha, Sabrina Lusvarghi, Bethilehem G Tebase, Carleen Klumpp-Thomas, Robert W Robey, Suresh V Ambudkar, Min Shen, Michael M Gottesman, Matthew D Hall. A High-Throughput Screen of a Library of Therapeutics Identifies Cytotoxic Substrates of P-glycoprotein. Mol Pharmacol. 2019, Nov;96(5):629-640.
SMILES,Potency,"activity change, negative = inhibition"
Cn1cc(-c2[nH]c3cc(NC(=O)[C@H](N)C4CCCCC4)cc4c3c2C=NNC4=O)cn1,"inconclusive: 26.4 µM [inhibitor, partial curve, poor fit]",–
COc1cc2c(NC3CCN(C(C)C)CC3)nc(N3CCCN(C)CC3)nc2cc1OCCOCCN(C)C,–,inactive: -9.4%
CCC1=CC2CN(C1)Cc1c([nH]c3ccccc13)[C@@](C(=O)OC)(c1cc3c(cc1OC)N(C)[C@H]1[C@@](O)(C(=O)OC)[C@H](OC(C)=O)[C@]4(CC)C=CCN5CC[C@]31[C@@H]54)C2 (stereo not given in full),"inconclusive: 11.8 µM [inhibitor, partial curve]",–
CC(NCc1ccc2c(c1)nc(NC(=O)c1ccc(-c3cn[nH]c3)s1)n2CC(C)(C)O)C(C)(C)C (stereo not given),active: 6.62 µM,–
CN(C)CCN(C)C(=O)c1ccc(NC(=O)Nc2ccc(-c3nc(N4CCOCC4)c4ccn(CC(F)(F)F)c4n3)cc2)cc1,"inconclusive: 13.2 µM [inhibitor, partial curve]",–
N=C(N)c1ccc(OCCCCCOc2ccc(C(=N)N)cc2)cc1,–,inactive: -22.7%
Oc1ccc(-c2ccc(-c3cc(Nc4cccc(CNC5CC5)c4)n[nH]3)cc2)c(O)c1,"inconclusive: 16.6 µM [inhibitor, partial curve]",–
CCC(C)C(=O)OC1CC(O)C23C4OCC5(C(O)CC2C1(C)C(O)O4)C3C(=O)C(O)C1(C)C(O)(c2ccoc2)CC2OC251 (stereo not given),–,inactive: 3.68% [at 15.2 µM]
Cc1nc(Nc2n[nH]c3c2CN(C(=O)N[C@H](CN(C)C)c2ccccc2)C3(C)C)c2sccc2n1,–,inactive: -30.3%
CC1(C)CC[C@]2(C(=O)OC3OC(CO)C(O)C(O)C3O)CC[C@]3(C)C(=CCC4[C@@]5(C)CC[C@H](OC6OC(C(=O)O)C(O)C(O)C6O)C(CO)(CO)C5CC[C@]43C)[C@@H]2C1 (stereo not given in full),–,inactive: 4.01% [at 15.2 µM]
O=C(NC1CC1)c1cccc(-c2ccc3c(NC(=O)C4CC4)n[nH]c3c2)c1,–,inactive: -11.5%
Cc1cc(Nc2cc(NC(=O)c3c(Cl)cccc3Cl)ccn2)nc(N)n1,"inconclusive: 16.6 µM [inhibitor, partial curve]",–
CCC1(O)CC2CN(CCc3c([nH]c4ccccc34)[C@@](C(=O)OC)(c3cc4c(cc3OC)N(C=O)[C@H]3[C@](O)(C(=O)OC)[C@H](OC(C)=O)[C@]5(CC)C=CCN6CC[C@]43[C@@H]65)C2)C1 (stereo not given in full),"inconclusive: 3.32 µM [inhibitor, full curve]",–
CC(C)C[C@@H](C=O)NC(=O)[C@H](CC(C)C)NC(=O)[C@H](CC(C)C)NC(=O)OCc1ccccc1 (Cbz-Leu-Leu-Leu-aldehyde),active: 2.96 µM,–
COCCn1c2c([n+](Cc3cnccn3)c1C)C(=O)c1ccccc1C2=O,–,inactive: -7.01%
C=CCNC1=C2CC(C)CC(OC)C(O)C(C)/C=C(\C)C(OC(N)=O)C(OC)/C=C/C=C(\C)C(=O)NC(=CC1=O)C2=O (stereo not given),"inconclusive: 14.8 µM [inhibitor, partial curve]",–
Cc1cc(Nc2cc(N3CCN(C)CC3)nc(Sc3ccc(NC(=O)C4CC4)cc3)n2)n[nH]1,–,inactive: 3.38%
CC(=O)OC1C(=O)C2(C)C(O)CC3OCC3(OC(C)=O)C2C(OC(=O)c2ccccc2)C2(O)CC(OC(=O)C(O)C(NC(=O)c3ccccc3)c3ccccc3)C(C)=C1C2(C)C (stereo not given),"inconclusive: 4.18 µM [inhibitor, full curve]",–
COc1cc([C@@H]2c3cc4c(cc3[C@H](O)[C@H]3COC(=O)[C@H]23)OCO4)cc(OC)c1OC,"inconclusive: 0.118 µM [inhibitor, full curve]",–
CN(c1ncccc1CNc1nc(Nc2ccc3c(c2)CC(=O)N3)ncc1C(F)(F)F)S(C)(=O)=O,"inconclusive: 18.7 µM [inhibitor, partial curve]",–

SMILES,Potency,"activity change, negative = inhibition"
NC(=O)Nc1cc(-c2ccc(CN3CCOCC3)c(F)c2)sc1C(=O)N[C@H]1CCCNC1,"inconclusive: 23.5 µM [inhibitor, single point]",–
CC(C)CC(=O)Nc1n[nH]c2c1CN(C(=O)C1CCN(C)CC1)C2(C)C,–,inactive: 4.88%
CCCCc1nc2cc(C=CC(=O)NO)ccc2n1CCN(CC)CC,"inconclusive: 13.2 µM [inhibitor, partial curve]",–
COc1cccc2c1C(=O)c1c(O)c3c(c(O)c1C2=O)C[C@@](O)(C(=O)CO)C[C@H]3O[C@H]1C[C@H](N)[C@@H](O)[C@H](C)O1,"inconclusive: 20.9 µM [inhibitor, partial curve]",–
CCn1nnc2c(N3CCOCC3)nc(-c3ccc(NC(=O)Nc4ccc(C(=O)N5CCN(C)CC5)cc4)cc3)nc21,"inconclusive: 16.6 µM [inhibitor, partial curve]",–
CN(C)C1CCN(C(=O)c2ccc(NC(=O)Nc3nc(N4CCOCC4)nc(N4CCOCC4)n3)cc2)CC1,–,inactive: -13.5%
C[C@@H]1O[C@@H](O[C@H]2[C@H](O)[C@@H](O)[C@H](O[C@H]3[C@H](O[C@H]4CC[C@@]5(C)C(=CC[C@@H]6C5CC[C@]5(C)[C@@H]7[C@H](C[C@@H]65)O[C@]5(CC[C@@](C)(CO[C@@H]6O[C@H](CO)[C@@H](O)[C@H](O)[C@H]6O)O5)[C@H]7C)C4)O[C@H](CO)[C@@H](O)[C@@H]3O)O[C@@H]2CO)[C@H](O)[C@H](O)[C@H]1O (stereo not given in full),–,inactive: -18.3% [at 15.2 µM]
CC(=O)O[C@H]1C(=O)[C@@]2(C)C([C@H](OC(=O)c3ccccc3)[C@]3(O)C[C@H](OC(=O)[C@H](O)[C@@H](NC(=O)c4ccccc4)c4ccccc4)C(C)=C1C3(C)C)[C@]1(OC(C)=O)CO[C@@H]1C[C@@H]2O (stereo not given in full),"inconclusive: 1.05 µM [inhibitor, full curve]",–
CC(C)(C)c1cnc(CSc2cnc(NC(=O)C3CCNCC3)s2)o1,active: 38.2 µM,–
CCN1CCN(Cc2ccc(NC(=O)Nc3ccc(Oc4cc(NC)ncn4)cc3)cc2C(F)(F)F)CC1,–,inactive: 3.35%
NC(=O)Nc1cc(-c2cccc(F)c2)sc1C(=O)N[C@H]1CCCNC1,"inconclusive: 7.43 µM [inhibitor, full curve]",–
C/C=C1/NC(=O)C2CSSCCC=CC(CC(=O)NC(C(C)C)C(=O)N2)OC(=O)C(C(C)C)NC1=O (stereo not given),"inconclusive: 23.5 µM [inhibitor, partial curve]",–
C[C@]12CCC(=O)C=C1[C@@H]1C[C@@H]1[C@H]1[C@@H]3[C@@H]4C[C@@H]4[C@@]4(CCC(=O)O4)[C@@]3(C)CC[C@@H]12,"inconclusive: 18.7 µM [inhibitor, partial curve]",–
CC[C@@H]1C(=O)N(C)c2cnc(Nc3ccc(C(=O)NC4CCC(N5CCN(CC6CC6)CC5)CC4)cc3OC)nc2N1C(C)C (stereo not given in full),"inconclusive: 3.72 µM [inhibitor, full curve]",–
O=C(NC1CCNCC1)c1[nH]ncc1NC(=O)c1c(Cl)cccc1Cl,–,inactive: 0%
CCN(CC)Cc1ccc(C(=O)N(CCc2ccccc2OC)[C@@H]2CCNC2)cc1,–,inactive: 4.66%
"Cc1c2oc3c(C)ccc(C(=O)N[C@@H]4C(=O)NC(C(C)C)C(=O)N5CCC[C@H]5C(=O)N(C)CC(=O)N(C)C(C(C)C)C(=O)O[C@@H]4C)c3nc-2c(C(=O)N[C@@H]2C(=O)NC(C(C)C)C(=O)N3CCC[C@H]3C(=O)N(C)CC(=O)N(C)C(C(C)C)C(=O)O[C@@H]2C)c(N)c1=O (stereo not given in full) (I: T[ξV]P[Sar][ξNMeV] / II: T[ξV]P[Sar][ξNMeV]; ester I:1-I:C, II:1-II:C; linker I:N-II:N via Actinocin(9to1))",active: 0.418 µM,–
C#Cc1cccc(Nc2ncnc3cc(OC)c(OCCCCCCC(=O)NO)cc23)c1,active: 13.2 µM,–
CO[C@H]1/C=C/C=C/C=C/C[C@H](OC(=O)[C@@H](C)NC(=O)C2CCCCC2)[C@H](C)[C@@H](O)/C(C)=C/CCc2cc(O)cc(c2)NC(=O)C1,–,inactive: -15.5% [at 15.2 µM]
CN(C)C1CCN(C(=O)c2ccc(NC(=O)Nc3ccc(-c4nc(N5CCOCC5)nc(N5CCOCC5)n4)cc3)cc2)CC1,"inconclusive: 37.2 µM [inhibitor, partial curve, poor fit]",–

# Complete entries, looked up by structure. Order of values: Potency	activity change, negative = inhibition
# CN(C)C1CCN(C(=O)c2ccc(NC(=O)Nc3ccc(-c4nc(N5CCOCC5)nc(N5CCOCC5)n4)cc3)cc2)CC1 as listed: inconclusive: 37.2 µM [inhibitor, partial curve, poor fit]	–
# CC(C)CC(=O)Nc1n[nH]c2c1CN(C(=O)C1CCN(C)CC1)C2(C)C as listed: –	inactive: 4.88%
# CC(C)(C)c1cnc(CSc2cnc(NC(=O)C3CCNCC3)s2)o1 as listed: active: 38.2 µM	–
